PubChem BioAssay AID686938, Drosophila RNAi Screening Center, 2013
The deposit covers about 23,000 reagents; shown is a random part of those that have a named target and a result. Over the whole deposit, 75 (0.33%) got an active call. 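Raw plate signals without normalisation; calls rest on plate z-scores that were not deposited; ratio present for only 364 wells.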 Unmarked entries are inactive. The numbers tell different reagents against one gene apart. A plus sign joins genes that one reagent is predicted to hit. Reagent sequences are not shown. Not stated in the record: the dose of the treatment.

- Assay: 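Knock-downs reducing store-operated calcium influx in Drosophila cells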 (primary screen)
- Cells: Drosophila S2R+ cells
- Reagents: long dsRNA against Drosophila genes, about 0.25 µg dsRNA per well, roughly 10,000 cells
- Timing: 5 days of knock-down before the calcium assay
- Challenge: thapsigargin (SERCA pump blocker) to empty calcium stores; entry signal taken 4 min after adding it
- Measurement: 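Duplicate raw fluo-4 intensities per well from a plate reader, at rest and four minutes after thapsigargin emptied calcium stores; entry-to-rest ratio filled for only some wells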
- Scale: calcium entry signal: higher = stronger calcium signal after store depletion; entry to resting ratio: higher = more calcium entry relative to resting level; resting calcium signal: higher = higher resting calcium signal
- Hit rule: 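Called when the plate z-score of the entry-to-rest ratio, mean of duplicates, falls below −3; wells with low overall dye signal (Fmax z below −2) or more than five off-targets excluded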
- Calls: active = strongly reduced calcium entry; inactive = no strong reduction

gene | reagent no. | calcium entry signal, replicate 1 (fluorescence units) | calcium entry signal, replicate 2 (fluorescence units) | entry to resting ratio | resting calcium signal, replicate 1 (fluorescence units) | resting calcium signal, replicate 2 (fluorescence units)
CG4049 | 1 | 3.16e7 | 4.10e7 | – | 1.64e7 | 1.92e7
nkd | 1 | 2.74e7 | 4.49e7 | – | 1.27e7 | 1.77e7
trio | 1 | 3.13e7 | 2.37e7 | – | 1.49e7 | 1.11e7
trio | 2 | 2.16e7 | 1.88e7 | – | 1.36e7 | 1.19e7
trio | 3 | 1.85e7 | 2.59e7 | – | 9.86e6 | 1.25e7
CG31869 | 1 | 2.62e7 | 4.02e7 | – | 1.35e7 | 1.82e7
CG31869 | 2 | 3.47e7 | 4.30e7 | – | 1.42e7 | 1.87e7
shams | 1 | 4.34e7 | 5.91e7 | – | 2.12e7 | 2.64e7
CG9519 | 1 | 2.73e7 | 3.10e7 | – | 1.34e7 | 1.44e7
CG31952 | 1 | 3.18e7 | 3.43e7 | – | 1.55e7 | 1.56e7
CG31952 | 2 | 2.40e7 | 4.17e7 | – | 1.23e7 | 1.94e7
CG13771 | 1 | 2.50e7 | 2.93e7 | – | 1.32e7 | 1.40e7
AP-2sigma | 1 | 3.54e7 | 3.82e7 | – | 4.72e7 | 1.65e7
bai | 1 | 4.73e7 | 5.02e7 | – | 2.37e7 | 2.13e7
Ran | 1 | 2.19e7 | 2.36e7 | – | 1.57e7 | 1.77e7
CG15599 | 1 | 2.71e7 | 3.21e7 | – | 1.47e7 | 1.55e7
CG9072 | 1 | 4.15e7 | 2.27e7 | – | 2.15e7 | 1.17e7
CG6834 | 1 | 3.93e7 | 4.24e7 | – | 1.91e7 | 2.13e7
Grl36a | 1 | 3.93e7 | 4.16e7 | – | 2.36e7 | 1.90e7
CG7271 | 1 | 4.49e7 | 3.18e7 | – | 2.09e7 | 1.34e7
Lcp1Psi | 1 | 2.64e7 | 4.29e7 | – | 1.47e7 | 4.07e7
CG9915 | 1 | 3.65e7 | 2.15e7 | – | 1.85e7 | 1.09e7
CG9915 | 2 | 3.62e7 | 4.10e7 | – | 2.02e7 | 1.89e7
Twdlbeta | 1 | 3.62e7 | 4.85e7 | – | 1.94e7 | 2.03e7
PQBP1 | 1 | 5.64e7 | 4.03e7 | – | 2.55e7 | 1.82e7
CG10505 | 1 | 3.29e7 | 5.34e7 | – | 1.74e7 | 2.31e7
CG15653 | 1 | 4.67e7 | 5.47e7 | – | 2.65e7 | 2.33e7
CG5810 | 1 | 4.29e7 | 3.92e7 | – | 6.44e7 | 1.90e7
CG5810 | 2 | 3.62e7 | 4.83e7 | – | 1.78e7 | 2.45e7
AttC | 1 | 3.16e7 | 3.45e7 | – | 1.63e7 | 1.59e7
ATPsynCF6L | 1 | 3.61e7 | 5.82e7 | – | 1.72e7 | 2.52e7
CG13920 | 1 | 3.98e7 | 2.97e7 | – | 1.91e7 | 1.55e7
CG2336 | 1 | 3.72e7 | 2.89e7 | – | 1.82e7 | 1.37e7
Pgm2a | 1 | 4.81e7 | 4.46e7 | – | 2.02e7 | 1.92e7
CG7290 | 1 | 2.01e7 | 3.36e7 | – | 1.08e7 | 1.50e7
B4 | 1 | 3.82e7 | – | – | 1.97e7 | –
B4 | 2 | 3.55e7 | 2.45e7 | – | 1.60e7 | 1.20e7
Past1 | 1 | 3.59e7 | 4.03e7 | – | 1.75e7 | 2.05e7
S-Lap5 | 1 | 3.37e7 | 4.51e7 | – | 1.80e7 | 2.07e7
CG10333 | 1 | 3.24e7 | – | – | 1.69e7 | –
Set8 | 1 | 2.66e7 | 2.92e7 | – | 1.35e7 | 1.61e7
CG14556 | 1 | 3.53e7 | 4.61e7 | – | 1.82e7 | 1.99e7
veg (retired record) | 1 | 4.20e7 | 4.75e7 | – | 2.00e7 | 2.14e7
Trm7-32 | 1 | 3.84e7 | 3.20e7 | – | 1.70e7 | 1.44e7
CG10864 | 1 | 4.31e7 | 4.53e7 | – | 5.32e7 | 2.16e7
SLIRP2 | 1 | 4.00e7 | 3.71e7 | – | 2.02e7 | 1.79e7
CG1227 | 1 | 3.92e7 | 4.82e7 | – | 1.65e7 | 1.99e7
yuri | 1 | 1.84e7 | 2.21e7 | – | 1.20e7 | 1.04e7
yuri | 2 | 2.17e7 | 3.01e7 | – | 1.21e7 | 1.40e7
yuri | 3 | 3.96e7 | 2.61e7 | – | 1.77e7 | 1.33e7
yuri | 4 | 4.48e7 | – | – | 2.18e7 | –
krz | 1 | 3.00e7 | 4.84e7 | 2.2 | 1.40e7 | 1.81e7
nmo | 1 | 2.78e7 | 4.97e7 | – | 1.53e7 | 1.99e7
nmo | 2 | 4.57e7 | 3.85e7 | – | 3.27e7 | 1.63e7
GatB | 1 | 5.06e7 | 5.47e7 | – | 2.35e7 | 2.09e7
CG13102 + Rcd-1r | 1 | 3.44e7 | 5.14e7 | – | 1.71e7 | 2.04e7
asRNA:CR43299 + CG8119 | 1 | 2.99e7 | 3.62e7 | – | 1.61e7 | 1.55e7
Slbp | 1 | 2.45e7 | 2.97e7 | – | 1.33e7 | 1.43e7
Aplip1 | 1 | 3.83e7 | 2.85e7 | – | 1.60e7 | 1.27e7
Aplip1 | 2 | 2.67e7 | 3.37e7 | – | 1.42e7 | 1.56e7
Aplip1 | 3 | 2.14e7 | 2.59e7 | – | 1.14e7 | 1.31e7
CG9062 | 1 | 2.48e7 | 3.78e7 | – | 1.32e7 | 1.69e7
lms | 1 | 2.09e7 | 3.09e7 | – | 1.14e7 | 1.39e7
CG32640 + CG32641 | 1 | 4.20e7 | 3.70e7 | – | 2.42e7 | 1.67e7
ENGase | 1 | 3.98e7 | 2.86e7 | – | 1.91e7 | 1.51e7
ENGase | 2 | 2.39e7 | 2.30e7 | – | 1.34e7 | 1.13e7
nbs | 1 | 3.29e7 | 4.79e7 | – | 1.62e7 | 2.00e7
Nepl5 | 1 | 4.81e7 | – | – | 2.51e7 | –
CG4045 | 1 | 3.89e7 | 4.34e7 | – | 1.74e7 | 2.09e7
gol | 1 | 3.17e7 | – | – | 1.65e7 | –
CG34030 | 1 | 4.18e7 | 7.43e7 | – | 2.16e7 | 3.07e7
PIG-H + Kmn2 | 1 | 2.48e7 | 3.24e7 | – | 1.41e7 | 1.54e7
NdufA3 | 1 | 1.98e7 | 2.92e7 | – | 9.53e6 | 1.25e7
atms | 1 | 2.27e7 | 2.49e7 | – | 1.31e7 | 1.76e7
CG11007 | 1 | 3.17e7 | 2.78e7 | – | 1.55e7 | 1.53e7

In a second layout: entries from further up.
gene,reagent no.,"calcium entry signal, replicate 1 (fluorescence units)","calcium entry signal, replicate 2 (fluorescence units)",entry to resting ratio,"resting calcium signal, replicate 1 (fluorescence units)","resting calcium signal, replicate 2 (fluorescence units)"
lms,1,2.09e7,3.09e7,,1.14e7,1.39e7
CG32640 + CG32641,1,4.20e7,3.70e7,,2.42e7,1.67e7
ENGase,1,3.98e7,2.86e7,,1.91e7,1.51e7
